Hit rate of the full screen: of about 53,000 sequences, about 3,700 (7%) were called active.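 The calls were made as follows: active = gene knockdowns whose robust z-score for IL-1 alpha signal is at least 2 or at most -2, so actives lie on both sides; inactive = the rest.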 The list shows a part of the results.

The experiment is described as follows: Components of the Cytosolic LPS Sensing Pathway: Gene Identification via Genome-wide siRNA Screen.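 Also: robust z of the log signal after scaling to non-targeting control siRNA wells of the plate.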 The conditions noted are these: RAW264.7 macrophages, IL-1a HTRF, actives lie on both sides, screened at 100 nM (by protocol), cells primed 5 h with Pam3CSK4 first. In short, it runs like this: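 Using IL-1a HTRF as read-out, the screen measured release from RAW264.7 cells after 48h siRNA knockdown (100 nM), 5 h Pam3CSK4 priming and 24 h cytosolic LipidA. Values were expressed relative to negative-control wells as robust z-scores.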
Background: In TR-FRET formats the signal depends on donor and acceptor labels being close together.
In the case of GGCCGGAAGGAUAUUACCUTT against Epha3, the z-score is inactive: -0.81.
For GCAUUACACUGUUAAUGUUTT against Gopc the value was inactive: -0.138; for GGUGAAGCCACAAUGUUCCTT against Helt, inactive: 0.246; for CCUAAAACUCACCAUAGAGTT against Nfatc3, inactive: -1.13.
In the case of GGAGGAAACACAUCAUUUGTT against Tmem131 it was inactive: 1.15.
In the case of GGUAGCUAGAGAACUCUAUTT against Otud7b it was inactive: 1.12; in that of GGACAUAUUGGAAACAGAATT against Plgrkt, inactive: 0.00205; in that of GCGACUUCGCUAUAUCAAGTT against Samhd1, inactive: 1.65.
As for GCAGAGGGACAGUCUACAUTT against Rorc, the z-score is inactive: -0.534.
For GGGUGCAUGCCUUAAACAATT against Utrn the value was inactive: 0.812.
For UCCAGAAAGAGAAAGCCAUTT against Ifna16, the z-score is inactive: 0.429.
In the case of CCUUAAUCAUUAGGAUUGCTT against Zfp655 it was inactive: -0.529.
CGAUAUUUAUCAUGAGUGCTT against Nlrp9c: the z-score was inactive: -1.9.
For GCCACACAUAGGAACCAGUTT against Abhd16a, the z-score is inactive: -0.704.
Take CGUCCAUAGAACAAUUGCATT against Rnase12: the z-score was active: 2.82.
In the case of CCAAAUCCCAGAGUUAUUUTT against Htr2c it was inactive: 0.361; in that of CCGUAGCGAGACUUACAUCTT against Asic3, inactive: 1.88.
With GCCUGACUCUAGCUGUCAATT against Mzb1, the z-score was inactive: -1.02.
For CGAUCGUGUGGGUUAUAUCTT against Htr1f the value was inactive: 1.17; for GCAGUACUAAACCAGAUAUTT against Ncbp3, inactive: 1.9.
In the case of GCUAAAGCAGCUCGUCUGGTT against Psmd11 it was inactive: -0.368.
In the case of GGCAACUGUUGUAAAUCAATT against Veph1 it was inactive: -1.01; in that of GUCCAUACUUUGGUUUUCCTT against Plekhh1, inactive: -0.195; in that of GGUUCAUCCAACUUUCAAGTT against Stac3, inactive: 0.587.
On to GGCUUGGCUAUGAAAAGUATT against Rusc2, for which the z-score was inactive: -0.794.
In the case of GCCUAUGAGGAACUACCUATT against Pga5, the z-score is inactive: 1.23.
Turning to CGAACUUGUACAGAAGAAUTT against Slfn3, the z-score is inactive: -0.311.
As for CCAUGUGUCAAACUACCGGTT against Rbmx2, the z-score was active: 7.02.
In the case of CCGGCUUAUGCUCAACUUCTT against Bpifb1 it was inactive: 0.29.
For GGCUCGUUUGUACGACUUCTT against Pigm the value was inactive: 1.2; for GGAGUCUGCUGGUUUAGUGTT against Fmc1, inactive: 0.0551.
Turning to GGGUUUCUAUGAAGAGAUCTT against Fhod1, the z-score is inactive: -0.624.
On to GCUCCGGAAAUUGGCAUCATT against Ppp1r10, for which the z-score is inactive: -1.5.
On to CGUGGUUAAGGACUUGUUUTT against Nek7, for which the z-score is inactive: 0.0862.
In the case of CCAGCUCUCGAUUCCAUCATT against Fem1a it was inactive: 0.615; in that of GGAGAACAAGUGUCUGCUUTT against Tspan9, inactive: -0.196.
For CGAGUUGCAGGAUUUCAAGTT against Slit3 the value was inactive: 0.512; for GCGAAUUACUAUGUACCUATT against Sqor, inactive: 1.75; for GCUUACAUGAACAUAUAGUTT against Tiparp, inactive: -0.402.
In the case of GGAAUUUGUGAAAAGAAGUTT against Aldh1a2 it was inactive: -0.923; in that of GGUCCUGAAGAUACAUAUUTT against Taf2, active: -2.42; in that of GCAAAUGUAUUAUGUCCUUTT against Gm5478, inactive: 0.0907.
Regarding CCACCACAACUAAGUCAGATT against Ccdc90b, the z-score was inactive: -1.34.
For GGAUGACGUACGCUUCAAGTT against Cercam the value was inactive: 0.563.
For CCUAUGGGUGUCUAUACCUTT against Clrn3 the value was inactive: 0.0264; for GGAGACACAACCAACAUUATT against Cnr1, inactive: 0.564.
For GGAUUCAUUUCAUACCUUGTT against Rab31 the value was inactive: -0.335; for CGGGCAUGAUGAAUCGAUGTT against Ldhd, inactive: 1.83; for GGAAUCUUUGUCCGUGAGCTT against Prx, inactive: -0.516.
As to GGCUUGAACACAAGAAAGCTT against Golim4, the z-score is inactive: -0.778.
For GCCGCUACUCUCCUCAAAATT against Card19 the value was inactive: -0.329; for GCCAAAGAGCAUAUCGAUUTT against Spopl, inactive: 0.889.
In the case of GGCUAAGAAGGAGAUUAAATT against Gas2 it was inactive: 0.0847; in that of GGAAAGAUGAGUUUCUGUUTT against Arf3, inactive: 1.48; in that of CGAAGCUCUAAUUUCAUGUTT against Pik3c3, inactive: 0.456.
GCUGCACAUUGUCCAUUAUTT against Car12: the z-score was active: 2.3.
For CCAUUCCAAAGCACUCUUATT against Cerkl the value was inactive: 0.822.
In the case of ACUACUCAGACAUCUCUUGTT against Capn11 it was inactive: 0.143.
In the case of GGAAUUCAUUAGAAACCAGTT against Psmc1, the z-score is inactive: -1.83.
For the sequence GGCCUUUAUCCUGAGGCUATT against Ctu2, the z-score is inactive: -1.75.
As for GGACUGGAGUGGUUUGUCUTT against Atp9b, the z-score is inactive: -1.11.
In the case of GGAGAAAAACAUCAUUGAATT against Reck it was inactive: -0.102.
For GCGUGAAUGAGGGAUCAGATT against Nphs1 the value was inactive: -0.0184; for GGUUAAAUGCCCGCCAACATT against Eif2ak4, inactive: -0.876; for CGGCAUCAUUCAUUCAUUATT against Pacrgl, active: 2.01.
For CGGCUGAAGACUGAAAACGTT against Hnrnpl the value was inactive: 0.221; for GGUUUAAGAUUGAGUAUUCTT against Eid1, inactive: 0.602; for GGUUCAGCAUUUUAAAGUGTT against Ago3, inactive: 1.05.
Consider CCUUAUGAGUCUUACGACUTT against Zfp326, for which the z-score is inactive: 1.15.
CCAUCUGUCUUCUAUUUCATT against Echdc1: the z-score was inactive: -0.702.
For GGAAGUCACUCCUCUUGUUTT against Ralgapa1 the value was inactive: -0.49; for GGCCUUACUAAAGAACCGCTT against Ipo4, inactive: 0.931.
In the case of GCACAGAUCUUUUUGUUCUTT against Olfr297, the z-score is inactive: -1.11.
Regarding GCAAAGGACCUAAUUUAUUTT against Ehd4, the z-score is inactive: 1.13.
In the case of CGACAUGAUUACUAUUCUCTT against Eif4ebp1 it was inactive: -0.39.
For GAAGAAGCCUACAGUGACCTT against Zfp644 the value was inactive: 0.945.
In the case of CCCAGAAGGACGGCACUAGTT against H2-DMb2 it was inactive: 0.265; in that of GGCUGUUUGCCUGUAUUCUTT against Olfr259, inactive: -1.34; in that of GGUACCAGAACACAAGACCTT against Vkorc1, inactive: -0.548.
As for GCAUUUUGUGAGCGUACAATT against Itgal, the z-score is inactive: 1.18.
For GGAAGCAGAGAGUUAGAAGTT against Ndel1 the value was inactive: 0.297; for CCCUGUUCCAAUCCGGUUCTT against Selenov, inactive: -0.999.
In the case of GCAACAGACAUUGCCAUCATT against Olfr243 it was inactive: -1.32; in that of GGAAAGCUACAUGUUGCUUTT against Prkacb, inactive: -0.237.
In the case of GGUCCAGUUCCUUGACAUCTT against Ifit1 it was inactive: -1.1; in that of GCAAACAAAACAAGUGAGCTT against Cyb5r2, inactive: -0.371.
Take GGAACUGACUCUUGAAAAUTT against Cd14: the z-score was inactive: 0.367.
For CCUAGACAUCAGUAAUGCGTT against Zbtb17 the value was inactive: -0.43.
For GGAAACUCUUCACCACAAATT against Cypt1 the value was inactive: 0.038; for CCAAGAGGAAAGCAUAGAUTT against Flii, inactive: 1.79; for GGUGAACAACUUUGUCAUCTT against Atat1, inactive: -0.258.
In the case of GCGACGCAGAGUGAGAAGATT against Cdk4 it was inactive: -1.03.
As for CGGAGGAAUCACAAGUAUATT against Il23r, the z-score is inactive: -0.245.
For CGAGGUUGAAGAUCUCUAUTT against Dph6 the value was inactive: 1.91; for GGGAGCCAUUUUUACAGACTT against Ffar4, inactive: 0.405; for GGUCGACAGACUCUUGCAUTT against Mylk3, inactive: -0.982.
GGAGAAGCCUCAUCAACCATT against Fam53b: the z-score is inactive: -1.33.
In the case of GGACAUGGCCAGAUACUACTT against Npy it was inactive: 0.389.
On to GGAAUCUCACCAAUCCAAATT against Rab14, for which the z-score is inactive: -0.364.
Regarding GGACUAAAUGGUCAAGAUUTT against Rbm8a, the z-score is active: -2.74.
As to GGAAGAGAGCGAUUAAAUUTT against Rsrc2, the z-score was inactive: 0.839.
For GGGCUGAAGAUGACUUCAATT against Topors the value was active: 5.91.
For GGGAGCUAUUUAUCCUAUUTT against Zc4h2 the value was inactive: 0.214; for GCCUUAAUUUAUCCGAAAGTT against Senp7, inactive: 0.629.
For “GAGCUGGAGCAAGAAUUCGTT against 4632415L05Rik” the value was inactive: -0.0319.
For GGUCAAGUGUAACAAAGAATT against Bcorl1, the z-score was inactive: -0.417.
In the case of GGCUUUGUUAGUCUAUGACTT against Dzip1l it was inactive: -0.552; in that of CACAGGAGCCAAUGAUGCUTT against Taar7d, inactive: -0.441.
